In PMC13385800 (2026):
Changes are numbered by the printed parent chain. Names and notes keep the numbering of the source. These are yes or no findings as the source states them, for the method shown. Binding seen in cells or lysates may run through a third protein. These calls come from enrichment with a bait or labelling near it, and not all partners need be listed. For some of these results: A no says only that the protein was not detected with the bait. Blank lines part the entries; values can stand above or below the molecule they belong to.

Sequences of proteins named here, by UniProt entry; tags and fusion partners are left off.
UniProt Q60974: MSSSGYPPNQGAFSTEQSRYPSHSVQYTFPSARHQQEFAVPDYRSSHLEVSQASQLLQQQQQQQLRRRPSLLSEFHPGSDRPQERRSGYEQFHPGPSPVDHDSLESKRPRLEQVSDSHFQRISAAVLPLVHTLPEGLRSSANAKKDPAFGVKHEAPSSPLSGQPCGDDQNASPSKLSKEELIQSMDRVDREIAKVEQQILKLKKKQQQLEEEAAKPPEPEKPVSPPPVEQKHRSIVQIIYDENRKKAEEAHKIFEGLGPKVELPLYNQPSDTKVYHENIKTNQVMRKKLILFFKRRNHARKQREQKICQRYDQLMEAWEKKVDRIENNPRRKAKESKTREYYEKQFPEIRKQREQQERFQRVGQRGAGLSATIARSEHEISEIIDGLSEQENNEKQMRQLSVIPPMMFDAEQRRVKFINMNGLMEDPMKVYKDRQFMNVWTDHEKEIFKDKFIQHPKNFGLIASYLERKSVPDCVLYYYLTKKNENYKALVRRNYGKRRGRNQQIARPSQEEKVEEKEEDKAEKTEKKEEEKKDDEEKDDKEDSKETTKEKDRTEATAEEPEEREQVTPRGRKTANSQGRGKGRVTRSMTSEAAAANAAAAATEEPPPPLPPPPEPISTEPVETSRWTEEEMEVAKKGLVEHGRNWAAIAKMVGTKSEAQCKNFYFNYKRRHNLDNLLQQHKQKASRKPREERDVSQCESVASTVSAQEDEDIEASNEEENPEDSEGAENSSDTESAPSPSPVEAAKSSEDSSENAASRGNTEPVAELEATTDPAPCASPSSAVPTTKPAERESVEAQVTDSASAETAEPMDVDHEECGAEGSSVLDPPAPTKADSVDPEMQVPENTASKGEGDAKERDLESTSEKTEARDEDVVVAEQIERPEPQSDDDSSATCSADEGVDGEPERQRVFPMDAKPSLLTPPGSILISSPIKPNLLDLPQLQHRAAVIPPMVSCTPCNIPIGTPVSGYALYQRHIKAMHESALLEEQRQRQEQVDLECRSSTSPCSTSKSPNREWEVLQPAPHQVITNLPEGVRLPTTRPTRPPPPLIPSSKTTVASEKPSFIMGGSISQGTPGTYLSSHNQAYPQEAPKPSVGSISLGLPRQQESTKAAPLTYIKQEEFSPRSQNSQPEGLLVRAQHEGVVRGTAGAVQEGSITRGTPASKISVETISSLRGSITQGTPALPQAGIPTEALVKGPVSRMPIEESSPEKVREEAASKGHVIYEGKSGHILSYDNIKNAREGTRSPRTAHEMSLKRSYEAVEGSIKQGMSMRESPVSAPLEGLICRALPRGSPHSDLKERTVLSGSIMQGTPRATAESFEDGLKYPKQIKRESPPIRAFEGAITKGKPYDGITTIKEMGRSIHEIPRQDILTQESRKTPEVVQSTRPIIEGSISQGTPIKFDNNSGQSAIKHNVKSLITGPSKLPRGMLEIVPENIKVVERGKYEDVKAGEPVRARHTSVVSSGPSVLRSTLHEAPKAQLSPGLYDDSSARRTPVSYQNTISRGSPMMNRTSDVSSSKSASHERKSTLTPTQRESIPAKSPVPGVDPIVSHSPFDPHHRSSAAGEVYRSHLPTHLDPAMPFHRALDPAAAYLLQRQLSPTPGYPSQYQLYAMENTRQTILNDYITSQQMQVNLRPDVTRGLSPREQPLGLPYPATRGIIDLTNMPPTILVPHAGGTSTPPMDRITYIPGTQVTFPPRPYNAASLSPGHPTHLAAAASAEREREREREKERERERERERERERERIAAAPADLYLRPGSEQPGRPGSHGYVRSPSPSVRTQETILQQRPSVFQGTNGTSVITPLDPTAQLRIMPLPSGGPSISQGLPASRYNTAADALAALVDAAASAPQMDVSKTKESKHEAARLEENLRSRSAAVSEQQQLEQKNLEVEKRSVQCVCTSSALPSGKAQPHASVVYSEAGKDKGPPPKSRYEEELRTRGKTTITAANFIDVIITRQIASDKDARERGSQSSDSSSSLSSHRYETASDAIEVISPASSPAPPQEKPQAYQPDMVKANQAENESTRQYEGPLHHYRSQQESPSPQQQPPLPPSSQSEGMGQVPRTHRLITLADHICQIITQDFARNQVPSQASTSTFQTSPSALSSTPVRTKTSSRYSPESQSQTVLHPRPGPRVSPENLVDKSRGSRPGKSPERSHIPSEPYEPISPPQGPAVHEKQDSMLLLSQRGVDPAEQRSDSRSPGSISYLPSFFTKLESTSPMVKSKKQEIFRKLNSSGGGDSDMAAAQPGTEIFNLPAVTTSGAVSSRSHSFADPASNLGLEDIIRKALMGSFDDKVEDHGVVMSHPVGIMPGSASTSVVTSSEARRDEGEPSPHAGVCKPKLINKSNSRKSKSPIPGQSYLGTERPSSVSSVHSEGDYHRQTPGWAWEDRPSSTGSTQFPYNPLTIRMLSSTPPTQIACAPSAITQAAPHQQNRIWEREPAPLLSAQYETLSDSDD
UniProt Q6UB99: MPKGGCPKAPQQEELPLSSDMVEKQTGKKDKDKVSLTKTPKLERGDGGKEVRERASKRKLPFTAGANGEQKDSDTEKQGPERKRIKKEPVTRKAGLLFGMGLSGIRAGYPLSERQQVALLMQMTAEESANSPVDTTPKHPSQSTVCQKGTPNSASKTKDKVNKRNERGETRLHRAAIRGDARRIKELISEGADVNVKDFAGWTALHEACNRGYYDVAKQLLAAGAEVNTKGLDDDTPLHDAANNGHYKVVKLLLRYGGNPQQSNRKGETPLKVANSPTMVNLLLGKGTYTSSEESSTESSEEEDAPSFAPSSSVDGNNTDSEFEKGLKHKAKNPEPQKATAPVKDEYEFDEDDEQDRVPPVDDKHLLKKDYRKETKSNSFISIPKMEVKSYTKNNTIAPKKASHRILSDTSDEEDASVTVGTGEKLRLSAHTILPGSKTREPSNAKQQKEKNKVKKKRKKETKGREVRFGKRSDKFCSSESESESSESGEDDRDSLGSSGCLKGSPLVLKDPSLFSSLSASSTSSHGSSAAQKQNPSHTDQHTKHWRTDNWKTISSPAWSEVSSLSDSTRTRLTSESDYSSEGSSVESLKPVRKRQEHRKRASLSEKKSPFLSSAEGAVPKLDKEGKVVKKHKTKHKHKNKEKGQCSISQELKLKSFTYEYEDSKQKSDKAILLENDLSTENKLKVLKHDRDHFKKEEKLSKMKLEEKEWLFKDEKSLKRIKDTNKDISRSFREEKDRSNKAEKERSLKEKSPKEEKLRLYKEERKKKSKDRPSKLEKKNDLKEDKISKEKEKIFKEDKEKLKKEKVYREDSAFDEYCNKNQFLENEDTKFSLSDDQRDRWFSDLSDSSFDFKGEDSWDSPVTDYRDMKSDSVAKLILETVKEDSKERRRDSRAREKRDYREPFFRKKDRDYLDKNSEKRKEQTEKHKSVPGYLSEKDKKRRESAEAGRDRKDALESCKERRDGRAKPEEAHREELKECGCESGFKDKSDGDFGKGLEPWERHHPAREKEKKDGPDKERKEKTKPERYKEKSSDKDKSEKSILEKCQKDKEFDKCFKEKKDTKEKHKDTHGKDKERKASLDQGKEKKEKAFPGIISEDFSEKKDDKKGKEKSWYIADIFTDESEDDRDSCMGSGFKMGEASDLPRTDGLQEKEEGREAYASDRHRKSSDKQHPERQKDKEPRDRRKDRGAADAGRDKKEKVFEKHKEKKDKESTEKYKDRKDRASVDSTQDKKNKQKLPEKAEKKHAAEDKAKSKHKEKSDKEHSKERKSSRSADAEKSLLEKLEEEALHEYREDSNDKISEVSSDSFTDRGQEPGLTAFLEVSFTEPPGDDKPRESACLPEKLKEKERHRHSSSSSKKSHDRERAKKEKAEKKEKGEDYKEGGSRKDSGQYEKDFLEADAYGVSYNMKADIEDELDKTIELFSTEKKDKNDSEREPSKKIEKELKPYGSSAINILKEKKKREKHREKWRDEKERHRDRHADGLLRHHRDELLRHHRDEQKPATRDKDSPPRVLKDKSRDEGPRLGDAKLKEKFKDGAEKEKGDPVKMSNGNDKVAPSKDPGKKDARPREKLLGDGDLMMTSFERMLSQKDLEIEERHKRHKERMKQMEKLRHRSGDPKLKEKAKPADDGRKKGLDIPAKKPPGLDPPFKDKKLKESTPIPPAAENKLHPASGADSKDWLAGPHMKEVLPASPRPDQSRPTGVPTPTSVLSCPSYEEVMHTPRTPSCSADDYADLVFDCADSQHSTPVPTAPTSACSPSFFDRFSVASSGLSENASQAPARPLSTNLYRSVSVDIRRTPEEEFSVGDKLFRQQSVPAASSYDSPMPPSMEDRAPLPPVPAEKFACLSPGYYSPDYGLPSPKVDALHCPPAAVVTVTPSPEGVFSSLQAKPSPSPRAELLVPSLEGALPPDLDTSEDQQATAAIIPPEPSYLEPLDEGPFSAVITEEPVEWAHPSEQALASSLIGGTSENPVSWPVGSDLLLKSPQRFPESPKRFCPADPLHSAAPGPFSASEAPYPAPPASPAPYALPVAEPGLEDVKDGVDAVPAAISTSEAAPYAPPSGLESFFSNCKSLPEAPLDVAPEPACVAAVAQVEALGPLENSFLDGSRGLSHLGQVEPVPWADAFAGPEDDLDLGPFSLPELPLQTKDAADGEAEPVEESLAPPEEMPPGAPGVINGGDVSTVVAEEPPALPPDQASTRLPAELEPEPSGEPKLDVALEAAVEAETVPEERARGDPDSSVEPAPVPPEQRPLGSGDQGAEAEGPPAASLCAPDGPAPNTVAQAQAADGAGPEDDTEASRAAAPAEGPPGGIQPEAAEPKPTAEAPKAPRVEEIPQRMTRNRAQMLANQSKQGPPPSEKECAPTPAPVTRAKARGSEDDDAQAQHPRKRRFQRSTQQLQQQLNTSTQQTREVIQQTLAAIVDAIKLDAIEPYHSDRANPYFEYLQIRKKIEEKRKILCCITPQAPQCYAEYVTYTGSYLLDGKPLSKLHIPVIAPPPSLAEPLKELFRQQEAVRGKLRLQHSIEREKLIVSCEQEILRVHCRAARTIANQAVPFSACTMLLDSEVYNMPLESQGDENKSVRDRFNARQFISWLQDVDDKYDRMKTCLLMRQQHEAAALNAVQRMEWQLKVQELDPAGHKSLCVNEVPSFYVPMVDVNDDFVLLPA

Tests used:
TBLR1-mCherry wild type = target: T1, TBLR1-mCherry wild type (UniProt Q9BZK7); experiment: affinity purification with mass spectrometry; IP (RFP trap) of wild-type, G70D or D370N TBLR1-mCherry transfected into TBLR1-null Flp-In T-REx 293 cells; extracts in NE10, benzonase, 150 mM NaCl; n = 3 transfections
T1 sequence: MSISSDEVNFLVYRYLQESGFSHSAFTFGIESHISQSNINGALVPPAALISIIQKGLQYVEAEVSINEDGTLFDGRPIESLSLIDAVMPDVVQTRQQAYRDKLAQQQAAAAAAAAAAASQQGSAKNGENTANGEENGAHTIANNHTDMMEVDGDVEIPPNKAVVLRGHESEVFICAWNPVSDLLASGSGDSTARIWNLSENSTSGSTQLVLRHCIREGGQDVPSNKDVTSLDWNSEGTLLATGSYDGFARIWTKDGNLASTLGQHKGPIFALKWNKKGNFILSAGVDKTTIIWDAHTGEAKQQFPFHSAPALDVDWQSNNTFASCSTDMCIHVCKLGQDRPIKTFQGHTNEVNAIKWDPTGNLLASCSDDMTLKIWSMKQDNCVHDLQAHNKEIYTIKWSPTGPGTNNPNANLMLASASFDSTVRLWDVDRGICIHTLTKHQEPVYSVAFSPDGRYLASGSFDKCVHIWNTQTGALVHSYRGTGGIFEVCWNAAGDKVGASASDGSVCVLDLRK

TBLR1-mCherry D370N = target: T2, TBLR1-mCherry D370N (UniProt Q9BZK7); experiment: as above
T2 sequence: T1 sequence with D370N

[1] = target: endogenous mouse NCOR1 (brain) (mouse (endogenous in brain)) (UniProt Q60974); experiment: affinity purification with mass spectrometry; IP with anti-NCOR1 cross-linked to protein G Dynabeads from brain nuclear extracts of Setd5^+/+ or Setd5^W834C/W834C male mice; n = 3 per genotype

binding (TBLR1-mCherry wild type): binds
Molecule: endogenous ANKRD11 of Flp-In T-REx 293 cells (from UniProt Q6UB99 1-2663)

binding (TBLR1-mCherry D370N): binds | binding (TBLR1-mCherry wild type): binds
B1: endogenous SETD5 of Flp-In T-REx 293 and HEK293T cells (protein, UniProt Q9C0A6 1-1442)
chain: MSIAIPLGVTTSDTSYSDMAAGSDPESVEASPAVNEKSVYSTHNYGTTQRHGCRGLPYATIIPRSDLNGLPSPVEERCGDSPNSEGETVPTWCPCGLSQDGFLLNCDKCRGMSRGKVIRLHRRKQDNISGGDSSATESWDEELSPSTVLYTATQHTPTSITLTVRRTKPKKRKKSPEKGRAAPKTKKIKNSPSEAQNLDENTTEGWENRIRLWTDQYEEAFTNQYSADVQNALEQHLHSSKEFVGKPTILDTINKTELACNNTVIGSQMQLQLGRVTRVQKHRKILRAARDLALDTLIIEYRGKVMLRQQFEVNGHFFKKPYPFVLFYSKFNGVEMCVDARTFGNDARFIRRSCTPNAEVRHMIADGMIHLCIYAVSAITKDAEVTIAFDYEYSNCNYKVDCACHKGNRNCPIQKRNPNATELPLLPPPPSLPTIGAETRRRKARRKELEMEQQNEASEENNDQQSQEVPEKVTVSSDHEEVDNPEEKPEEEKEEVIDDQENLAHSRRTREDRKVEAIMHAFENLEKRKKRRDQPLEQSNSDVEITTTTSETPVGEETKTEAPESEVSNSVSNVTIPSTPQSVGVNTRRSSQAGDIAAEKLVPKPPPAKPSRPRPKSRISRYRTSSAQRLKRQKQANAQQAELSQAALEEGGSNSLVTPTEAGSLDSSGENRPLTGSDPTVVSITGSHVNRAASKYPKTKKYLVTEWLNDKAEKQECPVECPLRITTDPTVLATTLNMLPGLIHSPLICTTPKHYIRFGSPFIPERRRRPLLPDGTFSSCKKRWIKQALEEGMTQTSSVPQETRTQHLYQSNENSSSSSICKDNADLLSPLKKWKSRYLMEQNVTKLLRPLSPVTPPPPNSGSKSPQLATPGSSHPGEEECRNGYSLMFSPVTSLTTASRCNTPLQFELCHRKDLDLAKVGYLDSNTNSCADRPSLLNSGHSDLAPHPSLGPTSETGFPSRSGDGHQTLVRNSDQAFRTEFNLMYAYSPLNAMPRADGLYRGSPLVGDRKPLHLDGGYCSPAEGFSSRYEHGLMKDLSRGSLSPGGERACEGVPSAPQNPPQRKKVSLLEYRKRKQEAKENSAGGGGDSAQSKSKSAGAGQGSSNSVSDTGAHGVQGSSARTPSSPHKKFSPSHSSMSHLEAVSPSDSRGTSSSHCRPQENISSRWMVPTSVERLREGGSIPKVLRSSVRVAQKGEPSPTWESNITEKDSDPADGEGPETLSSALSKGATVYSPSRYSYQLLQCDSPRTESQSLLQQSSSPFRGHPTQSPGYSYRTTALRPGNPPSHGSSESSLSSTSYSSPAHPVSTDSLAPFTGTPGYFSSQPHSGNSTGSNLPRRSCPSSAASPTLQGPSDSPTSDSVSQSSTGTLSSTSFPQNSRSSLPSDLRTISLPSAGQSAVYQASRVSAVSNSQHYPHRGSGGVHQYRLQPLQGSGVKTQTGLS

binding [1]: no binding
B2: endogenous mouse SETD5 W834C (knock-in) (protein, UniProt Q5XJV7 1-1441)
chain: MSIAIPLGVTTPDTSYSDMAAGSDPESVEASPAVNEKSVYSTHNYGTTQRHGCRGLPYATIIPRSDLNGLPSPVEERCGDSPNSEGETVPTWCPCGLSQDGFLLNCDKCRGMSRGKVIRLHRRKQDNISGGDSSATESWDEELSPSTVLYTATQHTPTSITLTVRRTKPKKRKKSPEKGRAAPKTKKIKNSPSEAQNLDENTTEGWENRIRLWTDQYEEAFTNQYSADVQNALEQHLHSNKEFVGKPAILDTINKTELACNNTVIGSQMQLQLGRVTRVQKHRKILRAARDLALDTLIIEYRGKVMLRQQFEVNGHFFKKPYPFVLFYSKFNGVEMCVDARTFGNDARFIRRSCTPNAEVRHMIADGMIHLCIYAVSAITKDAEVTIAFDYEYSNCNYKVDCACHKGNRNCPIQKRNPNAAELPLPPPPSFPTIGAETRRRKARRKELELEQQNEVPEENPDPQPQEVPEKVTVSNEHEEVDNPEEKPEEEEKEEATDDQENSAHSRRTREDRKVEAIMHAFESLEKRKKRRDQPVEQSSSDIEITTSSSEIVVGEETKTAAPESEVSSPVSNVAIPSTPQSTGVNTRRSSHAGDVAAEKPIPKPPPAKPSRPRPKSRISRYRTSSAQRLKRQKQAIAQQAELSQAALEEGGSNNSVTPPEAGNTDSSGENRQLTGSDPTVISVTGSHVNRAASKYPKTKKYLVTEWLNDKAEKQECPVECPLRITTDPTVLATTLNMLPGLIHSPLICTTPKHYIRFGSPFMPERRRRPLLPDGTFSSCKKRWIKQALEEGMTQTSSVPQETRTQHLYQSNETSNSSSICKDNADLLSPLKKCKSRYLMEQNITKLLQPLSPVTPPPPSSGSKSPQLTTPGQTHPGEEECRNGYSLMFSPITSLTTASRSNTPLQFELCHRKDLDLTKVGFPDSSTHSCADRPSLLNCNHPDLASHPSVVPTSEAGFPSRSGDGPQTLLRNSDQAFRTEFNLMYAYSPLNAMPRADGLYRGSPLVGDRKPLHLDGGYCSPAEGFSSRYEHGFMKDLSRGSMSPGGERTCEGVPSAPQNPPQRKKVSLLEYRKRKQEAKENSGGGNDSSQSKSKSSGAGQGSSNSVSDTGAHGVQGSSAGTPSSPHKKFSPSHSSASHLEAVSPSDSRGTSSSHCRPQENISSRWMVPTSVERLREGGSIPKVLRSSVRVAQKGEPSPTWESNITEKESDPADGEGPEPLSSALSKGATVYSPSRYSYQLLQCDSPRTESQSLLQQSSSPFRGHPTQSPGYSYRTTALRPGNPPSHGSSESSLSSTSYPSPAHPVSTDSLAPFTGTPGYYSSQPHSGNSTGSNLPRRSCSSSAASPTPQGPSDSPTSDSVSQSSTGTLSSTSFPQNSRSSLPSDLRTISLPNAGQSAAYQASRVSAVSNSQHYPHRGSGGVHQYRLQPLQGSGVKTQTGLS
